# Measured values from PubChem BioAssay AID504467 (National Center for Advancing Translational Sciences (NCATS), 2011).
# The campaign covered roughly 330,000 compounds. About 7,700 (2.3%) were called active. This list was built around the results that the source calls inconclusive (neither active nor inactive); the mix of calls is not that of the screen. The call rests on the fitted dose curve; in most records, active means well fitted inhibition curve with a large enough effect; inconclusive means small, poorly fitted or top-dose-only effect, or effect the other way; inactive means flat fitted curve, though single readings scatter. A potency beside an inconclusive call is a rough fit, not a confirmed value.
# Experiment: qHTS screen for small molecules that inhibit ELG1-dependent DNA repair in human embryonic kidney (HEK293T) cells expressing luciferase-tagged ELG1; further: nearly all actives have a fitted effect of over 55% in size
# Conditions: HEK293T ELG1-luciferase reporter, luminescence, 16 h, DNA damage induced by 5-fluorouridine; activity change, negative = inhibition: at 46.1 µM (top of the series)
# Summary of the method: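 Quantitative HTS, concentration-response format. 2,000 cells/well co-treated with 5-fluorouridine and compound, 16 hr in 5% CO2 at 37 °C; ONE-Glo luminescence read after 30 min.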
# On the % scale 0 is the no-effect control and ±100 the full control effect; potency means the concentration at half of the fitted maximal effect.
SMILES,Potency,"activity change, negative = inhibition"
COC(=O)c1c(C(=O)OC)c(-c2ccc(OC)cc2)n2c1CS(=O)(=O)C2,inactive,–
c1ccc(-c2csc(Nc3nc(N4CCOCC4)nc(N4CCOCC4)n3)n2)cc1,active: 5.8 µM,–
CC(C)(C)c1ccc(C(=O)NC(=O)COC(=O)CCS(=O)(=O)c2ccccc2)cc1,"inconclusive: 10.3 µM [activator, partial curve, poor fit]",–
Cc1cc(C)cc(N(C(=O)Cc2cccs2)C(C(=O)NC2CCCCC2)c2ccccn2)c1 (stereo not given),inactive,–
COCCn1c(C)cc(C(=O)CSc2nc3ccccc3o2)c1C,"inconclusive: 1.64 µM [activator, partial curve]",–
CC(=O)Oc1ccc(C(=O)Nc2ccc(S(=O)(=O)N3CCOCC3)cc2)cc1,"inconclusive: 29.1 µM [inhibitor, single point]",–
COc1ccc(NC(=S)Nc2ccccc2F)c(OC)c1,inactive,–
COc1ccc(N2CCN(C(=O)CCNC(=O)Cn3ccc4ccccc4c3=O)CC2)cc1,inactive,–
COc1ccc(NC(=O)COC(=O)CCc2ccc(S(=O)(=O)N3CCOCC3)cc2)cc1Cl,inactive,–
CCn1c2ccccc2c2cc(NC(=O)C(C)C)ccc21,"inconclusive: 25.9 µM [inhibitor, partial curve]",–
Cc1ccc(N/C=C/C(=O)c2ccccc2)cc1C,"inconclusive: 0.731 µM [activator, full curve]",–
COc1cc(/C=N/NC(=O)c2cccs2)ccc1O,"inconclusive: 16.4 µM [activator, partial curve]",–
Cn1c(-c2ccc(F)cc2)cnc1SCC(=O)Nc1ccccc1N1CCOCC1,"inconclusive: 2.91 µM [activator, partial curve]",–
N#Cc1ccccc1NC(=O)c1ccc2c(c1)OCO2,"inconclusive: 16.4 µM [activator, partial curve]",–
CC1=Nc2cc(C(=O)O)ccc2Sc2ccc(C)cc21,inactive,–
Cc1ccc(C2=NN(S(=O)(=O)c3ccccc3)C(c3ccccc3O)C2)cc1 (stereo not given),"inconclusive: 29.1 µM [inhibitor, single point]",–
Cc1cc(-n2c(C)cc(C(=O)CSc3nnnn3-c3ccccc3)c2C)no1,"inconclusive: 29.1 µM [inhibitor, single point]",–
O=C(Nc1ccc2nc3n(c(=O)c2c1)CCCCC3)C(=O)N1CCN(c2ccccc2)CC1,"inconclusive: 29.1 µM [inhibitor, single point]",–
NS(=O)(=O)c1cccc(NC(=O)COC(=O)/C=C/c2nc3ccccc3s2)c1,"inconclusive: 16.4 µM [activator, partial curve, poor fit]",–
COC(=O)c1ccc(C2C3=C(Nc4nnnn42)c2ccccc2OC3)cc1 (stereo not given),"inconclusive: 23.1 µM [inhibitor, single point]",–
Cc1c(C(=O)OCC(C)(C)CN(C)C)oc2ccccc12,"inconclusive: 20.6 µM [activator, partial curve]",–
CC(C)CC(=O)NC(=S)Nc1ccc(CN2CCOCC2)cc1,inactive,–
O=C(CC1SC(N2CCCC2)=NC1=O)Nc1ccc(C(=O)N2CCCC(C(F)(F)F)C2)cc1 (stereo not given),inactive,–

# Three of the compounds above, with bars between the fields.
SMILES | Potency | activity change, negative = inhibition
CC(=O)Oc1ccc(C(=O)Nc2ccc(S(=O)(=O)N3CCOCC3)cc2)cc1 | inconclusive: 29.1 µM [inhibitor, single point] | –
CCn1c2ccccc2c2cc(NC(=O)C(C)C)ccc21 | inconclusive: 25.9 µM [inhibitor, partial curve] | –
Cc1c(C(=O)OCC(C)(C)CN(C)C)oc2ccccc12 | inconclusive: 20.6 µM [activator, partial curve] | –

# Additional entries

SMILES,Potency,"activity change, negative = inhibition"
COc1ccc(C(CNC(=O)COc2ccccc2)N2CCOCC2)cc1 (stereo not given),inactive,–
CCCC[C@@H]1CNC(=S)N1CCCc1cc(OC)c(OC)c(OC)c1,"inconclusive: 29.1 µM [inhibitor, single point]",–
N=C(SC1CC(=O)N(c2ccc(F)cc2)C1=O)N1N=C(c2ccccc2)CC1c1ccccc1 (stereo not given),–,inconclusive: 174% [activator]
O=C1/C(=C\c2cccnc2)CN(Cc2ccccc2)C/C1=C\c1cccnc1,active: 3.66 µM,–
O=C(CSc1nncn1-c1ccccn1)Nc1cccc(Cl)c1,inactive,–
CCn1c(-c2ccccc2)csc1=Nc1ccc(O)cc1,"inconclusive: 5.17 µM [activator, full curve]",–
O=C(c1cnsn1)N1CCC(CO)(Cc2cccc(F)c2)CC1,"inconclusive: 23.1 µM [activator, partial curve]",–
CCOC(=O)C(CC(=O)c1ccccc1)CC(=O)c1ccccc1,"inconclusive: 23.1 µM [activator, partial curve]",–
CN1CCN(c2nc3c(c(=O)[nH]c(=O)n3C)n2Cc2ccccc2)CC1,inactive,–
COc1ccccc1OCCn1cc(C(=O)c2ccco2)c2ccccc21,"inconclusive: 29.1 µM [inhibitor, single point]",–
N#CC1=C(S)N(c2ccccc2)C(c2ccc(-c3cc(Cl)ccc3Cl)o2)NC1=O (stereo not given),inactive,–
NC(=O)c1ccccc1NC(=O)CCn1c(=S)oc2ccccc21,inactive,–
O=C(CN1C(=O)S/C(=C\c2ccc(-c3cc(C(=O)O)ccc3Cl)o2)C1=O)Nc1ccc2c(c1)OCO2,inactive,–
Cn1nnc(NC(=O)c2ccc(C(C)(C)C)cc2)n1,"inconclusive: 4.61 µM [activator, partial curve]",–
Cc1ccccc1CS(=O)(=O)c1cn(CC(=O)N2CCOCC2)c2ccccc12,"inconclusive: 16.4 µM [activator, partial curve, poor fit]",–
C[C@@H]1CN([C@@H](C)CO)C(=O)Cc2cc(NS(=O)(=O)c3ccccc3)ccc2O[C@H]1CN(C)S(C)(=O)=O,"inconclusive: 13 µM [activator, partial curve, poor fit]",–
COc1cc(NC(=O)CNC(c2ccccc2)c2ccccc2)cc(OC)c1OC,"inconclusive: 23.1 µM [inhibitor, single point]",–
COc1cccc(C(=O)Nc2ccc3[nH]ncc3c2)c1OC,"inconclusive: 20.6 µM [activator, partial curve]",–
Cc1ccc(C(=O)NCCc2nnc3ccc(SCC(=O)Nc4ccc(C)cc4C)nn23)cc1,"inconclusive: 20.6 µM [inhibitor, single point]",–
COc1ccccc1CNC(=O)CS(=O)(=O)Cc1ccccc1,inactive,–
O=C(Nc1ccc(N2CCOCC2)cc1N1CCOCC1)c1ccccc1,"inconclusive: 16.4 µM [inhibitor, single point]",–
CC(=O)CCc1oc2c([N+](=O)[O-])cccc2c1-c1ccc(C)o1,inactive,–
